Measured values as given in article PMC10619556, “Comprehensive Evaluation System for Post-Metabolic Activity of Potential Thyroid-Disrupting Chemicals” (Journal of Microbiology and Biotechnology, 2023).

Test system: thyroid hormone receptor (THR)
Assay: hTRE_HeLa THR transcriptional activity (nano luciferase reporter) assay with rat liver S9 mixtures
Assay type: cell-based, human
Settings: hTRE_HeLa cells; phase I+II group; 10 uM T3-biotransformant; greatest activity; mean ± SD
Experimental: The hTRE_HeLa cell line, obtained from the MFDS, was used to detect thyroid hormone receptor (THR) agonists through transcriptional activation analysis, utilizing a stably modified thyroid receptor-reactive human cervical cancer cell line along with one plasmid from a nano luciferase reporter. For cell line maintenance, minimum essential media (MEM, Gibco, USA) supplemented with 10% FBS, 1% penicillin/streptomycin (P/S), and 1 ml Hygromycin B (InvivoGen, USA) was used. The hTRE_Hela cell line was conditioned and treated in test medium containing Phenol red free of MEM (Gibco) supplemented with 10% charcoal-stripped FBS (CS-FBS), 1% P/S, and 1 mL Hygromycin B. hTRE_HeLa cells were maintained in 37°C and 5% CO2 incubator. hTRE_HeLa cells were seeded with 5 × 10^3 cells per well in the 96-well plate for 24 h and treated with EDCs and S9 mixtures for 48 h. […]
In the hTRE_Hela THR transcriptional activity assay, 100 nM of T3 was used as a positive control (PC). […] After a 10 min incubation, the luciferase activity was measured using a luminescence reader (Glomax Discover, Promega). […] The % to PC value of EDCs was calculated to (EDCs – VCtest) / (PC – VCcontrol). […] If the EDC was greater than or equal to 10% of PC, the EDC was determined to be a THR agonist-positive chemical. […]

**Q.** Which “THR transcriptional activity compared to the activity of 100 nM T3” value does the source give for N[C@@H](Cc1cc(I)c(Oc2ccc(O)c(I)c2)c(I)c1)C(=O)O [T3, 3,3’,5-triiodo-L-thyronine] here?
**A.** 309.1 ± 17.3%
